Measurements taken from PubChem BioAssay AID1439 (NMMLSC, 2008).
Screen size: about 220,000 compounds; about 770 (0.35%) were called active. The shares of active, inactive and inconclusive entries below differ from those in the screen. Cut-off read from the data, not from the text of the source: active = binding response below about 49% or above about 150%; inconclusive = no clear call, values can overlap the other calls; inactive = in between.

The chains behind the UniProt entries cited, without tags or fusion partners.
UniProt P09471, whole entry, looked up: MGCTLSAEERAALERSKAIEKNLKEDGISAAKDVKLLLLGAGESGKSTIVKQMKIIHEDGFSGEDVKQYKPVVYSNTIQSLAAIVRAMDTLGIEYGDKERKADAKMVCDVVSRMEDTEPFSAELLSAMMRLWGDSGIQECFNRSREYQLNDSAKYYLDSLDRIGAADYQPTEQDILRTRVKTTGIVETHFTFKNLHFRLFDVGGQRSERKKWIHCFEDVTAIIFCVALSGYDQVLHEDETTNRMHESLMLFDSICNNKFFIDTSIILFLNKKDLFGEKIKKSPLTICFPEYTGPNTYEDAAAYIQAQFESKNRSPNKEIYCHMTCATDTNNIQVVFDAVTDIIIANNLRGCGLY

Target: Guanine nucleotide-binding protein G(o) subunit alpha (Homo sapiens) (UniProt P09471)
Assay: RGS7-Galphao binding modulators, primary screen, biochemical, multiplexed bead flow cytometry (AID 1439);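 note: fluorescent Galphao held in activated GDP-AlF4 state binding bead-coupled RGS7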
Conditions: at 10 µM, actives lie on both sides

SMILES | binding response (% of control)
Cc1ccc(S(=O)(=O)Nc2ccc(N3CCN(C)CC3)nc2)cc1 | inactive: 101%
FC(F)(F)c1ccc(Cl)c(-n2c(-c3cc(C4CC4)[nH]n3)n[nH]c2=S)c1 | inconclusive: 125%
CCOc1ccccc1NC(=O)Nc1cccc(S(N)(=O)=O)c1 | inconclusive: 154%
CC1CC(C)(C)NC(=S)N1CC(=O)NCc1ccc(F)cc1 (configuration not stated) | inconclusive: 86.6%
COc1ccc(C(=O)Nc2cccc(C(=O)NCc3ccco3)c2)cc1 | inactive: 96.6%
CCCNCC1C(Oc2ccc(Cl)cc2)C(=O)N1c1ccccc1C (configuration not stated) | inactive: 103%
Cc1ccc2nc(NCc3ccccc3)c(C=NCc3cccnc3)c(=O)n2c1 | inconclusive: 92.9%
COc1cc2c3nnc(-c4ccc(F)cc4)c-3cn(Cc3ccccc3)c2cc1OC | inactive: 110%
Cc1ccc(C(=O)NC2CCc3ccccc3C2=O)cc1 (configuration not stated) | inactive: 91.6%
COc1ccc(C2(C#N)CCC(=O)N2c2ccccc2)cc1 (configuration not stated) | inconclusive: 158%
O=c1c2ccccc2nc(SCc2nc(-c3ccccc3)no2)n1-c1ccc(F)cc1 | inactive: 105%
CC(C)C[C@H](NC(=O)c1nc[nH]c1C(=O)NCC(=O)OC(C)(C)C)C(=O)OC(C)(C)C | inconclusive: 84.8%
O=C(CSc1nc2ccccc2n1Cc1ccccc1)N/N=C/c1ccccc1C(=O)O | inconclusive: 147%
COc1ccc(-c2ccc(CCC(=O)O)n2-c2ccccc2O)cc1 | inconclusive: 170%
CCC1=NN2C(=N)/C(=C/c3cc(C)n(-c4ccccc4)c3C)C(=O)N=C2S1 | inconclusive: 76.3%
COc1ccc(C(CCN2CCCC(C)C2)c2c(OC)cc(OC)c3c2OC(=O)CC3c2cc(OC)c(OC)c(OC)c2)cc1 (configuration not stated) | inconclusive: 135%
O=C(CN1CCOCC1)NN1CC(=O)N(c2ccc(Cl)cc2)CC1=O | inconclusive: 264%
C/C=C\C=C\C(=O)Nc1cccc(C2=NOC3(C2)C[C@@H](C(N)=O)N(C(=O)C(c2ccccc2)c2ccccc2)C3)c1 (some centres not stated) | inconclusive: 75.4%
OCCNC(=S)NCc1ccccc1 | inconclusive: 70.1%

SMILES | binding response (% of control)
O=C(O)CC12CC3CC(C1)CC(n1ncc(NCc4ccccc4Cl)c(Cl)c1=O)(C3)C2 | inconclusive: 92.5%
O=C(O)Cc1ccc(C(=O)CSc2ccccc2)s1 | inconclusive: 147%
Cc1ccc(NC(=O)NC(=O)N(C(C)C)S(C)(=O)=O)nc1 | inactive: 97.9%
Nc1nc(SCCO)[nH]c(=O)c1NC(=O)c1ccccc1F | inconclusive: 106%
Cc1nc(C(=O)NNC(=O)c2ccc(Cl)cc2)c(C(F)(F)F)o1 | inconclusive: 86%
CCCCC#Cc1cncc(C(=O)NN)c1 | inconclusive: 78.4%
CN(C)CCn1c(=O)n(-c2cccc(Cl)c2)c(=O)c2c3c(sc21)CCCCC3 | inconclusive: 133%
O=C(CSc1ncn[nH]1)N1CCCCC1 | inconclusive: 94.8%
O=C(Nc1ccccc1N1CCCC1)c1cccc(Cl)c1Cl | inactive: 99.2%
COC(=O)[C@@H]1C[C@@]2(O)[C@H](O)[C@H](O)[C@H](O)C[C@H]2N1Cc1cc(OC)cc(OC)c1 | inconclusive: 126%
O=C(O)CCNS(=O)(=O)c1cccc(Br)c1 | inconclusive: 89%
Cc1ccccc1C1C(C#N)=C2N=C(N)c3ccccc3N2C2=C1C(=O)CCC2 (configuration not stated) | inconclusive: 110%
CN(C)c1cc(NC(=O)CNC(C)(C)C)c2ccccc2n1 | inconclusive: 52.6%
COc1cc(C)nc(NC(=S)N(C)C(=O)c2ccccc2)n1 | inconclusive: 108%
CCC(=O)c1ccc(OCC(=O)N2CCc3cc(OC)c(OC)cc3C2)cc1 | active: -11.6%
CC(C)C(OC(=O)/C=C/c1ccc2c(c1)OCO2)C(=O)NC(N)=O (configuration not stated) | inconclusive: 90.2%
Cc1cc(=O)oc2cc(OC(=O)c3cncc(Br)c3)ccc12 | inactive: 106%
CC(NC(=S)NC1CCCCC1)C(c1cccs1)N1CCOCC1 (configuration not stated) | inconclusive: 110%
Cc1noc(C)c1N=Nc1ccc(Br)cc1C(=O)O | inactive: 103%

An excerpt of these results, as labelled records.
O=C(O)Cc1ccc(C(=O)CSc2ccccc2)s1
  binding response (% of control): inconclusive: 147%
O=C(CSc1ncn[nH]1)N1CCCCC1
  binding response (% of control): inconclusive: 94.8%
Cc1ccccc1C1C(C#N)=C2N=C(N)c3ccccc3N2C2=C1C(=O)CCC2 (configuration not stated)
  binding response (% of control): inconclusive: 110%

(continued)

SMILES | binding response (% of control)
CN1CCN(c2nc3c(c(=O)[nH]c(=O)n3C)n2CCSc2nnnn2-c2ccccc2)CC1 | inconclusive: 71%
Cc1cc(C)cc(N(CC(=O)NC2CCCC2)S(=O)(=O)c2c(C)[nH]c(=O)[nH]c2=O)c1 | inconclusive: 109%
CCOC(=O)C1=C(C)NC(C)=C(C(=O)OCC)C1c1cccc(C)n1 | inconclusive: 52.3%
Cc1ccc(S(=O)(=O)NCCC(=O)Oc2ccc3ccc(=O)oc3c2)cc1 | inconclusive: 197%
CCC(C)(C)NC(=O)CN(C(=O)c1snc(C(N)=O)c1N)c1ccc2c(c1)OCCO2 | inactive: 101%
CC1CN(Cc2ccccc2)c2nc3c(c(=O)[nH]c(=O)n3C)n2C1 (configuration not stated) | inconclusive: 105%
Cc1nnc(Cl)c2nn(-c3ccccc3F)c(C)c12 | inactive: 103%
NC(=O)N/N=C/c1coc2ccc3ccccc3c2c1=O | inconclusive: 89.1%
Cn1c2c(c(=O)n(C)c1=O)C(c1cccc(F)c1)C(C#N)=C(N)O2 (configuration not stated) | inconclusive: -249%
N#C/C(=C\c1ccc([N+](=O)[O-])cc1)C(=O)NCCCn1ccnc1 | inconclusive: 128%
O=C(COC(=O)/C=C/c1cccc(F)c1)Nc1ncccn1 | inconclusive: 131%
O=C(NNS(=O)(=O)c1ccc(C(=O)NC2CCCC2)cc1)c1ccncc1 | inconclusive: 102%
Cc1ccc(C(=O)O)cc1NC(=O)c1cccs1 | inactive: 95.4%
COCC(C)n1c(C)cc(C(=O)COc2ccc(C)nc2[N+](=O)[O-])c1C (configuration not stated) | inactive: 100%
O=C(O)C1CCN(C(=O)CCc2ccccc2)CC1 | inconclusive: 81.7%
O=C(O)c1ccc(Cl)c(S(=O)(=O)N2CCCC2)c1 | inconclusive: 351%
O=C(NCc1ccccn1)C(=O)C1C(=O)Nc2ccccc21 (configuration not stated) | inconclusive: 99.3%
O=C(c1cn(-c2ccccc2)nc1-c1cccc(Br)c1)N1CCOCC1 | inconclusive: 102%
COc1ccc(CCNC(=O)Nc2ccccc2[N+](=O)[O-])cc1 | inactive: 98.1%
